Article PMC10929200
Results are given in words; binding and its absence hold for the method and conditions named. Binding seen in cells or lysates may run through a third protein. Some results given as binding are weak or reduced against the parent protein; the word gives no strength.

The chains behind the UniProt entries cited, without tags or fusion partners.
UniProt P27449: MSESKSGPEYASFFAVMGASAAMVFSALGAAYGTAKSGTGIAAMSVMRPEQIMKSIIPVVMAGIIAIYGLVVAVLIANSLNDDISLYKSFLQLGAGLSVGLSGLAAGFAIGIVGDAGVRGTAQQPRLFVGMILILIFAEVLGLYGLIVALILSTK

Experiments:
Experiment in all cases: co-IP; 5x10^6 HK-2 cells lysed in Non-Denaturing Lysis Buffer; lysates incubated with primary antibodies or normal rabbit IgG and Protein A/G Magnetic Beads overnight at 4 °C; western blot; for STX17 with VAMP8 also cells with LV-shATP6V0C, LV-shTFEB, or LV-shATP6V0C in TFEB-overexpressed cells
[1] = target: syntaxin17 (STX17) (human (endogenous in HK-2)) (UniProt P56962)
[2] = target: T1, vesicle-associated membrane protein 8 (VAMP8) (human (endogenous in HK-2)) (UniProt Q9BV40)
T1 sequence: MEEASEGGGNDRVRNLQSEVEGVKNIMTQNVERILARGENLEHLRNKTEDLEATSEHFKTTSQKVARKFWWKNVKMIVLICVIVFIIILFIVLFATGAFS

[3] = target: ATP6V0C (human (endogenous in HK-2)) (UniProt P27449)
[4] = target: T2, syntaxin17 (STX17) (human (endogenous in HK-2)), P56962; conditions: remark: other sources report otherwise
T2 chain: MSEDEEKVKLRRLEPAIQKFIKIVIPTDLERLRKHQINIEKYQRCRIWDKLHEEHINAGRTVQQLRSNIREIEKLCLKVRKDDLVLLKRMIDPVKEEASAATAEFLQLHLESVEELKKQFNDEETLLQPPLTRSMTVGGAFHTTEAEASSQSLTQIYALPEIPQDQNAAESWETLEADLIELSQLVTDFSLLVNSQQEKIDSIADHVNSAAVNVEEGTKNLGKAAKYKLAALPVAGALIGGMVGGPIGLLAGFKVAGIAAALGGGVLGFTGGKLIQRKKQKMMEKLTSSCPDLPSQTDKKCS

ATP6V0C (from UniProt P27449 1-155) was tested, and the binding [1] was “binds” and the binding [2] was “binds”.

With “syntaxin17 (STX17) (from UniProt P56962 1-302)” the binding [3] was “binds”.

B1: vesicle-associated membrane protein 8 (VAMP8), Q9BV40 1-100 (protein)
chain: T1 sequence
B1 was tested, and the binding [4] was “binds”.
